Source: patent EP2072528A1
No constants are given. Whether binding was seen depends on the method and setting. For some of these results: Binding seen in cells or lysates may run through a third protein. Some binding calls cover weakened binding; strength is not graded here.

Chains of the proteins cited; added tags and fusions are not shown. Lines headed by an entry give the natural chain unless they say otherwise; changes in a name come on top.
UniProt Q15327: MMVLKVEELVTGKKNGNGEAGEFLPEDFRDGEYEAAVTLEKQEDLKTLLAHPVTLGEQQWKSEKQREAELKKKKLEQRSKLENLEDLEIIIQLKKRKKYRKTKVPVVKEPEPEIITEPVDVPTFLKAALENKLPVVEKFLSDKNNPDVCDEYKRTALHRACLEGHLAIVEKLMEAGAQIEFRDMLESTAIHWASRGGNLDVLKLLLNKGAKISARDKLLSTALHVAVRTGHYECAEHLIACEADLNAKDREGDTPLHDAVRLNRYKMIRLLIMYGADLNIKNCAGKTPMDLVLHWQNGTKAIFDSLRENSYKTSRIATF
UniProt Q96RP9: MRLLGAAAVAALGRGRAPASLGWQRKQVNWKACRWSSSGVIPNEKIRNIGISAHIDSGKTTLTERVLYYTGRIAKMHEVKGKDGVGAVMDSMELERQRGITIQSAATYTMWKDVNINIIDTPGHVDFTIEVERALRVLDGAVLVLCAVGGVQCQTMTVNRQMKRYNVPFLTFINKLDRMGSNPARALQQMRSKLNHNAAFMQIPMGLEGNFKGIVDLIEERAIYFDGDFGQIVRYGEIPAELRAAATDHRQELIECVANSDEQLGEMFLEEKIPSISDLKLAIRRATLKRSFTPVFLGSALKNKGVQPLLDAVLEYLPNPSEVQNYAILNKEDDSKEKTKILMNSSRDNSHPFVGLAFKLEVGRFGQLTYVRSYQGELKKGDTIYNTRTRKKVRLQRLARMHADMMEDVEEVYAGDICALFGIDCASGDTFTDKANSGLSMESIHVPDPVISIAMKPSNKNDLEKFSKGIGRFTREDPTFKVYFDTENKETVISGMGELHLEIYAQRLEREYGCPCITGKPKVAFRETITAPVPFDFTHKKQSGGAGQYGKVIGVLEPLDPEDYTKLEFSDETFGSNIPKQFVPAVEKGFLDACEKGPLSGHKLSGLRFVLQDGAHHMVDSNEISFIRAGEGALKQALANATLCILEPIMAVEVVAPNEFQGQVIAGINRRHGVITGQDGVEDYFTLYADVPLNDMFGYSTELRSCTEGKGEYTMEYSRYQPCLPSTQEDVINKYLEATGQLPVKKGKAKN
UniProt Q16654: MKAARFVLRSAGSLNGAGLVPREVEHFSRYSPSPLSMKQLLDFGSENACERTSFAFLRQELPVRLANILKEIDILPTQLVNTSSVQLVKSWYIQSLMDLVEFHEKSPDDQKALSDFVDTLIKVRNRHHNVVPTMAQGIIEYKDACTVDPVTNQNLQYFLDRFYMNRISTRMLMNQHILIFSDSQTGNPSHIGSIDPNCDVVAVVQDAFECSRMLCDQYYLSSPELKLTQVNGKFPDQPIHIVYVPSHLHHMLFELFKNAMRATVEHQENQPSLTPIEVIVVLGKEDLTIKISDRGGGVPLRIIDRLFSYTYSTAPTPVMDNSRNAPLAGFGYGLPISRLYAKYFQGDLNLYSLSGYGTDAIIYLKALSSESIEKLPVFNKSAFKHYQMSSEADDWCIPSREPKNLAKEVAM
UniProt P26641: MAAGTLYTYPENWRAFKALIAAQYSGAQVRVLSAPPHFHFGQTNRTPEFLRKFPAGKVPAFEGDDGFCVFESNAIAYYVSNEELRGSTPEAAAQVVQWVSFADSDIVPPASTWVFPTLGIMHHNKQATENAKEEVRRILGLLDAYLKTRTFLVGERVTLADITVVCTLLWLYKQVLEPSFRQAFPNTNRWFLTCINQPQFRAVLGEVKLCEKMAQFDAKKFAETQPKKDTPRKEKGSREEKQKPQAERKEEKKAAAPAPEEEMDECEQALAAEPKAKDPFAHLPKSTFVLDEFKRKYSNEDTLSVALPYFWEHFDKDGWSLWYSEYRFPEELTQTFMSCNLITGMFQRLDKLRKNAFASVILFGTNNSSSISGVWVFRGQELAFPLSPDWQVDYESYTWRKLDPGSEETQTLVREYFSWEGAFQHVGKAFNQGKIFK
UniProt P13929: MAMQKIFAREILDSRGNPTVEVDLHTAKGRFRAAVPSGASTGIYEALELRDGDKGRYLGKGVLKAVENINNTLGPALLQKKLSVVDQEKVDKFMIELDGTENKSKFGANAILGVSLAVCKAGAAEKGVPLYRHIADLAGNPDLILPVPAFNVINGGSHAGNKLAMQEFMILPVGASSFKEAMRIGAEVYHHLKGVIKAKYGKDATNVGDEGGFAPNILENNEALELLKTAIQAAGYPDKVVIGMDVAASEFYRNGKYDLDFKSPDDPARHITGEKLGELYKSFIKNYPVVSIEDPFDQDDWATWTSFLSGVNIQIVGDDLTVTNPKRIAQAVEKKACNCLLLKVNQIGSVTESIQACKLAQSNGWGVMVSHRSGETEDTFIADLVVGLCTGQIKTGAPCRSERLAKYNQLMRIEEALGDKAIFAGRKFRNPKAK
UniProt P05413: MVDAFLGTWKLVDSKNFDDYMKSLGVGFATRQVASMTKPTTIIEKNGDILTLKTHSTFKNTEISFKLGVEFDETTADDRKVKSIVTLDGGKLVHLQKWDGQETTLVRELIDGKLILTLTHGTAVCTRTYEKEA
UniProt P15090: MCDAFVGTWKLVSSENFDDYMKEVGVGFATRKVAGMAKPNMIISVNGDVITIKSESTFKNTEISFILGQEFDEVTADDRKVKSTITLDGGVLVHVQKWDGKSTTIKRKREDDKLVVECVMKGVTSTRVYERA
UniProt Q969Q1: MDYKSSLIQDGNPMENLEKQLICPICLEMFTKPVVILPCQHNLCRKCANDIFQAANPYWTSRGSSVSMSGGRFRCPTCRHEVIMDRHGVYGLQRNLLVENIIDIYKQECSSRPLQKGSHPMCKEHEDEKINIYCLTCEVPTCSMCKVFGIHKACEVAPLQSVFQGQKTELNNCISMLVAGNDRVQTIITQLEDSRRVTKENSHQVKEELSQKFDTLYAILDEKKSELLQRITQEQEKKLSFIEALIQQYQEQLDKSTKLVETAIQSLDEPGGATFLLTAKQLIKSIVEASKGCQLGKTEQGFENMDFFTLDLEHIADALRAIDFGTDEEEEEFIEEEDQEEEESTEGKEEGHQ
UniProt Q9BYV6: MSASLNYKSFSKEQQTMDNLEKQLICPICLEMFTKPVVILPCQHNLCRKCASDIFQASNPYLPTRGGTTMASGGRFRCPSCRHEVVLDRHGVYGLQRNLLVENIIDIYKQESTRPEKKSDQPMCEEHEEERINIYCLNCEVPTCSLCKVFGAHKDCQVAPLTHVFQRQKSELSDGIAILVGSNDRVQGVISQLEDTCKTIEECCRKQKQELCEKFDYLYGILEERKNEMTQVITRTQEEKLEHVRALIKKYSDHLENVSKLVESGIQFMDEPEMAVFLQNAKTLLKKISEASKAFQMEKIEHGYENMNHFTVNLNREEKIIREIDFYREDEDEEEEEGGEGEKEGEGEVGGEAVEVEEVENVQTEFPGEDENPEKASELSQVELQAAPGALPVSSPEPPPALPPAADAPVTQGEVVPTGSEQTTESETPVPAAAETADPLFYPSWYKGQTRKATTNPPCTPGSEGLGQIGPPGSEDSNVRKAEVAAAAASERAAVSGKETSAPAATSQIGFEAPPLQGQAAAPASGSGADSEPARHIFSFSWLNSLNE

Experiments:
[1] = target: CARP (NP_055206.2) (human) (UniProt Q15327); experiment: yeast two-hybrid
[2] = target: GFM1 (NP_079272.4) (human) (UniProt Q96RP9); experiment: yeast two-hybrid
[3] = target: T1, PDHB (NP_000916.2) (human) (UniProt P11177); experiment: yeast two-hybrid
T1 sequence (looked up): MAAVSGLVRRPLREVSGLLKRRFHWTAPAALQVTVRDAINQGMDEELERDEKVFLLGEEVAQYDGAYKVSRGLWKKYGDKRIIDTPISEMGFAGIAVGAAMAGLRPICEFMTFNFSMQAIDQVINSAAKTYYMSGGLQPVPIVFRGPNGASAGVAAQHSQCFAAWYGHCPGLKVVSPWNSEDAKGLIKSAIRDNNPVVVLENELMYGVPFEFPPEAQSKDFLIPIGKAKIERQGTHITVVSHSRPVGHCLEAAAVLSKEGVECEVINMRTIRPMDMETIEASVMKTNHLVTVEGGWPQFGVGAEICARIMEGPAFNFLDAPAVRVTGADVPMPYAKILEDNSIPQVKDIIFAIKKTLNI

[4] = target: PDK4 (NP_002603.1) (human) (UniProt Q16654); experiment: yeast two-hybrid
[5] = target: T2, PRDX3 (NP_006784.1) (human) (UniProt P30048); experiment: yeast two-hybrid
T2 sequence (looked up): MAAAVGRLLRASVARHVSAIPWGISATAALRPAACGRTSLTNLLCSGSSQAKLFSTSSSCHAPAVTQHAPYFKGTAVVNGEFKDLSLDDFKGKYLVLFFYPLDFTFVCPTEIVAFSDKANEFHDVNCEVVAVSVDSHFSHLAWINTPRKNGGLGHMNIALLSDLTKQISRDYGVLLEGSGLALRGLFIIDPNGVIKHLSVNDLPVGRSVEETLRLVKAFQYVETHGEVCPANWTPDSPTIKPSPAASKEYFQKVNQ

[6] = target: T3, DDIT4L (human) (UniProt Q96D03); experiment: yeast two-hybrid (Figure 7)
T3 sequence (looked up): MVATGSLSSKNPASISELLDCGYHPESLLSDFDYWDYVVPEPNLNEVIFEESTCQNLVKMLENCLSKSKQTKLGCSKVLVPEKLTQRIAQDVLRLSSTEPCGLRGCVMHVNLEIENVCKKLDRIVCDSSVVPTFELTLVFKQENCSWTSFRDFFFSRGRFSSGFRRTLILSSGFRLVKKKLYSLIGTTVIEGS

[7] = target: CARP (NP_055206.2) (human) (UniProt Q15327); experiment: yeast two-hybrid, full length bait
[8] = target: GFM1 (NP_079272.4) (human) (UniProt Q96RP9); experiment: yeast two-hybrid, full length bait
[9] = target: T1, PDHB (NP_000916.2) (human); experiment: yeast two-hybrid, full length bait
[10] = target: PDK4 (NP_002603.1) (human) (UniProt Q16654); experiment: yeast two-hybrid, full length bait
[11] = target: T2, PRDX3 (NP_006784.1) (human); experiment: yeast two-hybrid, full length bait
[12] = target: EEF1G (NP_001395.1) (human) (UniProt P26641); experiment: yeast two-hybrid
[13] = target: ENO3 (NP_443739.2) (human) (UniProt P13929); experiment: yeast two-hybrid
[14] = target: FABP3 (NP_004093.1) (human) (UniProt P05413); experiment: yeast two-hybrid
[15] = target: FABP4 (NP_001433.1) (human) (UniProt P15090); experiment: yeast two-hybrid
[16] = target: T4, FHL2 (NP_963851.2) (human) (UniProt Q14192); experiment: yeast two-hybrid
T4 sequence (looked up): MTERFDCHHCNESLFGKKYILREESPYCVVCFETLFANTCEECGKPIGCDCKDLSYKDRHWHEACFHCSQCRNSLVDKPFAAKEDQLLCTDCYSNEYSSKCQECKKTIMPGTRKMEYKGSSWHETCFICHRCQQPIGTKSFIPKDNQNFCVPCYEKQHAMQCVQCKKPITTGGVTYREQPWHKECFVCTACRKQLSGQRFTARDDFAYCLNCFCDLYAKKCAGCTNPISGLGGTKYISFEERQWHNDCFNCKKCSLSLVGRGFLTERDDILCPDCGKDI

[17] = target: sequestosome-1 (NP_003891.1) (human) (UniProt Q13501); experiment: yeast two-hybrid
[18] = target: EEF1G (NP_001395.1) (human) (UniProt P26641); experiment: yeast two-hybrid, full length bait
[19] = target: ENO3 (NP_443739.2) (human) (UniProt P13929); experiment: yeast two-hybrid, full length bait
[20] = target: FABP3 (NP_004093.1) (human) (UniProt P05413); experiment: yeast two-hybrid, full length bait
[21] = target: FABP4 (NP_001433.1) (human) (UniProt P15090); experiment: yeast two-hybrid, full length bait
[22] = target: T4, FHL2 (NP_963851.2) (human); experiment: yeast two-hybrid, full length bait
[23] = target: sequestosome-1 (NP_003891.1) (human) (UniProt Q13501); experiment: yeast two-hybrid, full length bait
[24] = target: EEF1G Maltose Binding Protein (MBP)-fusion protein (human) (UniProt P26641); experiment: in vitro pulldown with MBP-fusion protein
[25] = target: GFM1 Maltose Binding Protein (MBP)-fusion protein (human) (UniProt Q96RP9); experiment: in vitro pulldown with MBP-fusion protein
[26] = target: titin fragment A168-170 GST-fusion protein [GST: P08515]; experiment: Alpha screen (amplified luminescent proximity homogenous assay), streptavidin donor and glutathione acceptor beads, titration in microtitre wells

Row | binding [1] | binding [2] | binding [3] | binding [4] | binding [5] | binding [6] | binding [7] | binding [8] | binding [9] | binding [10] | binding [11] | Substance | further results
1 | binds | binds | binds | binds | binds | binds | binds | binds | binds | binds | binds | human MuRF1 polypeptide (muscle ring finger 1), full length (from UniProt Q969Q1 14-353) (enzyme) | 
2 | binds | binds | binds | binds | binds | binds | binds | binds | binds | binds | binds | human MuRF2 polypeptide (muscle ring finger 2), full length (from UniProt Q9BYV6 17-548) (enzyme) | binding [12]: binds; binding [13]: binds; binding [14]: binds; binding [15]: binds; binding [16]: binds; binding [17]: binds; binding [18]: binds; binding [19]: binds; binding [20]: binds; binding [21]: binds; binding [22]: binds; binding [23]: binds
3 |  |  |  |  |  |  |  |  |  |  |  | 212 amino acid residue central fragment of human MuRF1 (MuRF1 Bcc, B-Box + coiled-coil domain) (from UniProt Q969Q1 116-327) | binding [24]: binds; binding [25]: binds
4 |  |  |  |  |  |  |  |  |  |  |  | biotin-labeled 212-residue MuRF1 Bcc (from UniProt Q969Q1 116-327) | binding [26]: binds
